{"source": "patent US20020143059A1", "about": "“Skin care product containing retinoids, retinoid booster and phytoestrogens in a dual compartment package” (priority 2000, published 2002)", "system": "retinoic acid oxidation (cytochrome P450 systems)", "experiment": "Assay for NADPH Dependent Retinoic Acid Oxidation, liver microsomes", "type": "biochemical, rat", "details": "100 μM compound", "description": "2.2 Isolation of rat liver microsomes (modified from R. Martini & M. Murray, “Participation of P450 3A Enzymes in Rat Hepatic Microsomal Renitoic Acid 4-Hydroxylation”, Archives Biochem. Biophys. 303, 57-66 (1993)).\nThe resulting homogenate was successively centrifuged for 30 min. at 10,000 g, 30 min. at 20,000 g, and 15 min. at 30,000 g, and the resulting supernatant was ultracentrifuged for 80 min. at 105,000 g. […] Protein concentrations were determined as described above.\n303, 57-66 (1993). […] On the day of the assay, prepare a 60 mM NADPH solution in buffer.\nQuench with acidified ethanol/BHT and extract with hexane/BHT as described above.\nAliquots of 60 μL were injected immediately and analyzed for retinoid content.\nThe chromatography instrumentation consisted of a Waters 600 gradient controller/pump, a Waters 996 Photodiode Array detector and a Waters 474 Scanning Fluorescence detector. Two HPLC protocols were used for retinoid analysis. […] The eluate was monitored for absorbance at 325 nm and fluorescence at 325 ex/480 em. […] 189, 136-145 (1990). This system consisted of a 20 min. linear gradient from 68:32 (v/v) methanol/ water containing 10 mM ammonium acetate to 4:1 (v/v) methanol:dichloromethane followed by a 5 min. hold at a flow rate of 1 mL/min.", "data": [{"molecule": "Clc1ccccc1C(c1ccccc1)(c1ccccc1)n1ccnc1", "note": "[Clotrimazole]", "values": [{"measurement": "% Inhibition Retinoic Acid (100 μM)", "result": 85, "unit": "%"}]}]}
